Our source for the SI values is PMC11768359, “2-Aminothiophene Derivatives—New Drug Candidates Against Leishmaniasis: Drug Design, Synthesis, Pharmacomodulation, and Antileishmanial Activity” (Pharmaceuticals, 2025).

The structures appear in SMILES notation. “And” between values parts separate entries of the source, which are not always exact repeats. Equal entries are not always repeated.

One series deals with promastigotes of L. amazonensis. Briefly: Growth inhibition of promastigote forms of L. amazonensis (MTT). It counts as cell-based, Leishmania amazonensis. The note with it: SI = CC50/IC50 (macrophages / promastigotes). The protocol: The in vitro tests utilized Leishmania amazonensis parasites (IFLA/BR/67/PH8). These leishmania cell lines were obtained from Oswaldo Cruz Foundation (FIOCRUZ)/Brazil. The promastigote forms were cultivated in Schneider’s insect medium at 26 °C in a biological oxygen demand (BOD) incubator. Schneider’s insect medium was supplemented with 20% fetal bovine serum (FBS) and 1% penicillin (100 U/mL) and streptomycin (µg/mL) (complete Schneider). Next, we differentiated them from promastigote forms by changing the conditions to Schneider’s insect medium supplemented with 5% FBS, pH 4.6, and a temperature of 32 °C to obtain axenic amastigote forms of L. amazonensis. Meanwhile, RAW 264.7 macrophages were cultured in […] cell culture flasks using DMEM medium supplemented with 10% FBS, 1% penicillin 100 U/mL, and 100 μg/mL streptomycin (complete DMEM) and incubated at 37 °C and 5% CO2.
Parasite growth inhibition was evaluated using the methodology described by Rodrigues et al. (2015). Cultures of logarithmically growing promastigote and axenic amastigote forms (1 × 10^6 parasites/mL) were incubated in 96-well plates containing 100 µL of supplemented Schneider’s medium in triplicate. Serial concentrations of 2-amino-thiophene and 2-amino-selenophene derivatives (10.00–0.156 μM) and the reference drugs meglumine antimoniate (500–40,000 μg/mL), amphoterecinB (0.1–2 μM), and pentamidine (3.12–100 µM) were added. BNP was used as a negative control. The cultures were incubated in a biological oxygen demand oven (model Eletrolab EL202, São Paulo, Brazil) at 26 °C for promastigotes and 32 °C for axenic amastigotes for 72 h. Then, 10 μL of MTT (5 mg/mL) was added to each well to colorimetrically evaluate growth inhibition. The plate was subsequently incubated for a further 4 h, followed by adding 50 μL of 10% sodium dodecyl sulfate solution for […] before the optical density of the culture was read on a microplate spectrophotometer reader. The reading was taken at the test and reference wavelengths of 540 and 620 nm using a microplate spectrophotometer. The negative control consisted of 0.2% […] with BNP, considered to be 100% viable.
`N#Cc1ccc2[nH]cc(/C=N/c3[se]c4c(c3C#N)CCCC4)c2c1` [Compound 33] registered an SI of 21.83.

With `N#Cc1c(/N=C/c2c[nH]c3cccc([N+](=O)[O-])c23)[se]c2c1CCCC2` [Compound 34], the SI came to 88.49.

`Cc1cccc2c(/C=N/c3[se]c4c(c3C#N)CCCC4)c[nH]c12` [Compound 36] had an SI of 63.66.

Compound `N#Cc1c(/N=C/c2c[nH]c3cccc(Br)c23)[se]c2c1CCCC2` [Compound 37] had an SI of 53.71.

As to `N#Cc1c(/N=C/c2c[nH]c3ccc(Br)cc23)[se]c2c1CCCC2` [Compound 38], the SI is 68 and 68.45.

`COc1cccc2[nH]cc(/C=N/c3[se]c4c(c3C#N)CCCC4)c12` [Compound 39] gave an SI of 83.00.

The compound `N=C(N)c1ccc(OCCCCCOc2ccc(C(=N)N)cc2)cc1` [Pentamidine, reference compound] yielded an SI of 6.90.

The series is the same for the next values; noted with them: SI = CC50/IC50 (macrophages / promastigotes); listed as pentamidine.
Regarding `N=C(N)c1ccc(OCCCCCOc2ccc(C(=N)N)cc2)cc1` [Pentamidine, reference compound], the SI is listed as 6.9.
